Assay results reported in US20070015155A1, “Novel protein usable in screening drug improving type 2 diabetes” (priority 2003, published 2007).
For at least one compound, name, drawing or mass did not settle the structure.

Tested on: human CbAP40 promoter
Assay: Luciferase reporter assay of the transcription induction activity of the human CbAP40 promoter
Format: cell-based

CCc1ccc(CCOc2ccc(CC3SC(=O)NC3=O)cc2)nc1 (single isomer, unassigned; (+)) [pioglitazone, (+)-5-[4-[2-(5-ethyl-2-pyridienyl)ethoxy]benzyl]-2,4-thiazolidinone]
promoter activity (luciferase activity) of pGL3-CbAP40p (full 3119-bp promoter (SEQ ID NO:3) reporter, pioglitazone added at 0.1 to 10 μM, 24-hour culturing, corrected by β-galactosidase activity): suppressed | promoter activity (luciferase activity) of pGL3-CbAP40p[1364-3119] (reporter with positions 1364 to 3119 of SEQ ID NO:3, same experiment as pGL3-CbAP40p): suppressed | promoter activity (luciferase activity) of pGL3-CbAP40p[2125-3119] (reporter with positions 2125 to 3119 of SEQ ID NO:3, same experiment as pGL3-CbAP40p): suppressed | promoter activity (luciferase activity) of pGL3-CbAP40p[2569-3119] (reporter with positions 2569 to 3119 of SEQ ID NO:3, same experiment as pGL3-CbAP40p): never suppressed effectively
